Reference: ChEMBL document CHEMBL6071153, “Design, synthesis, and evaluation of antitumor activity in Pseudolaric acid B Azole derivatives: Novel and potent angiogenesis inhibitor via regulation of the PI3K/AKT and MAPK mediated HIF-1/VEGF signaling pathway” (Eur J Med Chem, 2024)

Test system: MDA-MB-231
Test: Cytotoxicity against human MDA-MB-231 cells assessed as inhibition of cell growth incubated for 96 hrs under hypoxic condition by MTT assay
Assay type: functional, cell-based
Settings: MDA-MB-231, 96 h

With `COc1cccc2c1C(=O)c1c(O)c3c(c(O)c1C2=O)C[C@@](O)(C(=O)CO)C[C@@H]3O[C@H]1C[C@H](N)[C@H](O)[C@H](C)O1` [DOXORUBICIN] the IC50 was 600 nM.
